The nature of this data set: Endogenous PGD2 metabolites in human urine by HPLC/MS/MS. The conditions noted are these: no treatment, mean±SEM. It is filed as in vivo.
As for `CCCCC[C@H](O)/C=C/[C@@H]1[C@@H](C/C=C\CC(=O)O)[C@@H](O)C[C@@H]1O` [2,3-dinor-11β-PGF2α], the “level of endogenous PGD2 metabolite in human urine” value was 0.6±0.1 ng/mg creatinine.
`CCCCC[C@H](O)/C=C/[C@@H]1[C@@H](C/C=C\CCCC(=O)O)[C@@H](O)C[C@@H]1O` [11β-PGF2α]: the “level of endogenous PGD2 metabolite in human urine” value is listed as “below the limits of detection”.
As for `O=C(O)CCCCC(=O)CC[C@H]1C(=O)C[C@H](O)[C@@H]1CCC(=O)O` [tetranor PGDM, 11,15-dioxo-9α-hydroxy-2,3,4,5-tetranor-prostan-1,20-dioic acid], the figure is 1.5±0.3 ng/mg creatinine.

Values taken from patent US8785682B2, “Tetranor PGDM: a biomarker of PGD2 synthesis in vivo” (The Trustees of the University of Pennsylvania, priority 2007, dated 2014).
